Measurements from the supplement of paper PMC12872613.
Counter-ions that a name gives are not always drawn. The list shows a part of the results. Cut-off read from the data, not from the text of the source: active = 0.7 or more and inactive = the rest. Repeats are few or missing, and single values can be far off.

tested on: MiaPaCa-2 CLSA-25; test: cell death relative to DMSO vehicle (fraction); higher = more cytotoxic; conditions: 5 µM; treatment time 48 h; medium cystine 25 µM

SMILES	cell death
CC(C)(Oc1ccc(Cl)cc1)C(=O)O [Clofibric acid]	inactive: 0.375
CC(O)(P(=O)(O)O)P(=O)(O)O [Etidronate]	inactive: 0.114
Nc1nc(Cl)nc2c1ncn2[C@H]1C[C@H](O)[C@@H](CO)O1 [Cladribine]	inactive: 0.106
O=c1c(-c2ccc(O)cc2)coc2cc(O[C@@H]3O[C@H](CO)[C@@H](O)[C@H](O)[C@H]3O)ccc12 [Daidzin]	inactive: -0.00054
CN(C)c1ccc(C(c2ccc(N(C)C)cc2)c2cc([N+](=O)[O-])ccc2Cl)cc1	inactive: 0.0097
CCCC[S+]([O-])c1sc2nc(-c3cccs3)cc(-c3ccccc3)c2c1N (centres undefined)	inactive: 0.0551
N[C@@H](CCC(=O)O)C(=O)O [glutamic acid]	inactive: 0.0329
O=C(Oc1ccc([N+](=O)[O-])cc1)N1CCN(Cc2cccc(Oc3ccccc3)c2)CC1	inactive: 0.117
O=C(NCCS(=O)(=O)c1ccc(C(F)(F)F)cn1)c1ccc(Cl)cc1	inactive: 0.254
C/C(=C(\CCOP(=O)(O)O)SC(=O)c1ccccc1)N(C=O)Cc1cnc(C)nc1N [Benfotiamine]	inactive: 0.118
NC(=O)N/N=C/c1ccc([N+](=O)[O-])o1 [Furacilin]	inactive: 0.364
O=C(NC[C@H]1CN(c2ccc(N3CCOCC3=O)cc2)C(=O)O1)c1ccc(Cl)s1 [Rivaroxaban]	inactive: 0.12
O=C(O)c1ccc(-n2nc(-c3ccccc3O)nc2-c2ccccc2O)cc1 [Deferasirox]	inactive: 0.472
CC[C@H]1OC(=O)[C@H](C)[C@@H](O[C@H]2C[C@@](C)(OC)[C@@H](O)[C@H](C)O2)[C@H](C)[C@@H](O[C@@H]2O[C@H](C)C[C@H](N(C)C)[C@H]2O)[C@](C)(OC)C[C@@H](C)C(=O)[C@H](C)[C@@H](O)[C@]1(C)O [Clarithromycin]	inactive: 0.178
COc1cc(OC)c(CCC(=O)c2ccc(O)cc2)c(OC)c1 [Loureirin B]	inactive: 0.199
CC(C)n1c(/C=C/C(O)CC(O)CC(=O)O)c(-c2ccc(F)cc2)c2ccccc21 (centres undefined) [Fluvastatin sodium salt]	inactive: 0.646
COC[C@H](NC(=O)c1cnc(C)s1)C(=O)N[C@@H](COC)C(=O)N[C@@H](Cc1ccccc1)C(=O)[C@@]1(C)CO1 [Oprozomib]	active: 0.718
c1ccc2[nH]c(-c3cscn3)nc2c1 [Thiabendazole]	inactive: 0.137
CCc1ccc(N(CC(C)C)S(=O)(=O)c2ccc(OCC3CCOCC3)c(CO)c2)cc1	active: 0.797
O=C(Nc1cnccc1Cl)N1CCN(Cc2ccc3c(c2)OC(F)(F)O3)CC1	inactive: 0.615

SMILES	cell death
O=C1N[C@](c2ccc(N3CCOCC3)cc2)(c2ccsc2)CC(O)=C1Sc1ccccc1Cl	inactive: 0.139
O=c1cc(-c2ccc(O)cc2)oc2cc(O)cc(O)c12 [Apigenin]	inactive: 0.326
COc1cc(C(C)=O)ccc1O [Acetovanillone]	active: 0.852
CC(C)n1cnc2c(NCCc3ccc(O)cc3)nc(-c3csc4ccccc34)nc21 [StemRegenin 1]	active: 0.75
O=C1CN2Cc3c(ccc(Cl)c3Cl)N=C2N1 [Anagrelide]	inactive: 0.453
O=C(COCC(=O)N1CCN(C(c2ccccc2)c2ccccc2)CC1)Nc1ccc(Cl)cc1C(=O)O [TM5275 sodium]	inactive: 0.0342
CCN(CC)CCOC(=O)C(c1ccccc1)c1ccccc1 [Adiphenine hydrochloride]	inactive: 0.00642
C[C@@H]1C[C@H]2[C@@H]3C[C@H](F)C4=CC(=O)C=C[C@]4(C)[C@@]3(F)[C@@H](O)C[C@]2(C)[C@@]1(O)C(=O)CO [Flumethasone]	inactive: 0.155
NC(=O)NS(=O)(=O)c1ccc(N)cc1 [Sulfanilylurea]	inactive: -0.0292
O=C(O)CCCCC(CCSCc1ccccc1)SCc1ccccc1 (centres undefined)	inactive: 0.489
O=C(O)Cc1nn(Cc2ccc(Br)cc2F)c(=O)c2ccccc12 [Ponalrestat]	inactive: 0.122
CC(=O)OCC(=O)[C@@]1(O)CC[C@H]2[C@@H]3CCC4=CC(=O)CC[C@]4(C)[C@@]3(F)[C@@H](O)C[C@@]21C [Fludrocortisone acetate]	inactive: 0.0492
Cc1ccc(C(=O)c2cc(O)c(O)c([N+](=O)[O-])c2)cc1 [Tolcapone]	inactive: 0.219
O=C(O)c1cc(O)c2c(c1)[C@H]([C@H]1c3cc(C(=O)O)cc(O)c3C(=O)c3c(O[C@@H]4O[C@H](CO)[C@@H](O)[C@H](O)[C@H]4O)cccc31)c1cccc(O[C@@H]3O[C@H](CO)[C@@H](O)[C@H](O)[C@H]3O)c1C2=O [Sennoside A]	inactive: 0.0337
O=C1CCc2cc(OCCCCc3nnnn3C3CCCCC3)ccc2N1 [Cilostazol]	inactive: -0.00375
C/C=C/C#CC#C/C=C/c1ccco1 [Atractylodin]	inactive: 0.15
O=C(O)Cc1cccc(OCCCN(Cc2cccc(C(F)(F)F)c2Cl)CC(c2ccccc2)c2ccccc2)c1	inactive: 0.118
Oc1ccc(/C=C/c2cc(O)cc(O)c2)cc1 [Resveratrol]	inactive: 0.166
O=C(O)c1cccnc1Nc1cccc(C(F)(F)F)c1 [Niflumic acid]	active: 0.8

Part of the list above in order of number of heavy atoms, rising.
SMILES	cell death
COc1cc(C(C)=O)ccc1O [Acetovanillone]	active: 0.852
CCN(CC)CCOC(=O)C(c1ccccc1)c1ccccc1 [Adiphenine hydrochloride]	inactive: 0.00642
O=C(O)Cc1cccc(OCCCN(Cc2cccc(C(F)(F)F)c2Cl)CC(c2ccccc2)c2ccccc2)c1	inactive: 0.118
